The record followed here is doi:10.1101/2024.10.07.617058.

Chains of the proteins cited; added tags and fusions are not shown. Lines headed by an entry give the natural chain unless they say otherwise; changes in a name come on top.
UniProt Q96A65: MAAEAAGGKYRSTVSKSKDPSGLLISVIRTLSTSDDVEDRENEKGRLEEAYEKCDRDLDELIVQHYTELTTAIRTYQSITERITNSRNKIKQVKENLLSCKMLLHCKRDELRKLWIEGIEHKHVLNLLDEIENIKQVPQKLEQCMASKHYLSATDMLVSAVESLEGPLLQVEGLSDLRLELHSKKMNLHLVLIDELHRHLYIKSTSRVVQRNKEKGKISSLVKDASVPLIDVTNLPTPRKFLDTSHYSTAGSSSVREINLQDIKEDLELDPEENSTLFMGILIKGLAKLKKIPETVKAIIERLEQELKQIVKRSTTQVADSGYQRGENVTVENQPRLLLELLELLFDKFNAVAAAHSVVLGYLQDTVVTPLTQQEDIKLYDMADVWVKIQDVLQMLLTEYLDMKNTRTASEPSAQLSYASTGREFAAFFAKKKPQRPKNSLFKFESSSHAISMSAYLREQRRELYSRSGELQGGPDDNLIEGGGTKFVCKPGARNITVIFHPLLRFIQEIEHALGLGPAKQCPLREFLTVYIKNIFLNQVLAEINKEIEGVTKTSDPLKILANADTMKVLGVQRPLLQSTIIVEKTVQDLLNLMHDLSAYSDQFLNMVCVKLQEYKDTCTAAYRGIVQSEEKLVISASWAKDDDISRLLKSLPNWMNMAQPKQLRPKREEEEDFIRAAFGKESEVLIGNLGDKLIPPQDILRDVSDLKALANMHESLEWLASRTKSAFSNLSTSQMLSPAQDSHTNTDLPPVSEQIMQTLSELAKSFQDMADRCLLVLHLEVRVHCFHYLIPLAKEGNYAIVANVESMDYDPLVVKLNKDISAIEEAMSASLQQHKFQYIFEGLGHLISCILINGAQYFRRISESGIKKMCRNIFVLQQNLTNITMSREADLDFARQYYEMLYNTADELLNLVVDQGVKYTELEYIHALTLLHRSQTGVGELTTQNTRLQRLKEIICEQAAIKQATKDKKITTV
UniProt Q9NV70: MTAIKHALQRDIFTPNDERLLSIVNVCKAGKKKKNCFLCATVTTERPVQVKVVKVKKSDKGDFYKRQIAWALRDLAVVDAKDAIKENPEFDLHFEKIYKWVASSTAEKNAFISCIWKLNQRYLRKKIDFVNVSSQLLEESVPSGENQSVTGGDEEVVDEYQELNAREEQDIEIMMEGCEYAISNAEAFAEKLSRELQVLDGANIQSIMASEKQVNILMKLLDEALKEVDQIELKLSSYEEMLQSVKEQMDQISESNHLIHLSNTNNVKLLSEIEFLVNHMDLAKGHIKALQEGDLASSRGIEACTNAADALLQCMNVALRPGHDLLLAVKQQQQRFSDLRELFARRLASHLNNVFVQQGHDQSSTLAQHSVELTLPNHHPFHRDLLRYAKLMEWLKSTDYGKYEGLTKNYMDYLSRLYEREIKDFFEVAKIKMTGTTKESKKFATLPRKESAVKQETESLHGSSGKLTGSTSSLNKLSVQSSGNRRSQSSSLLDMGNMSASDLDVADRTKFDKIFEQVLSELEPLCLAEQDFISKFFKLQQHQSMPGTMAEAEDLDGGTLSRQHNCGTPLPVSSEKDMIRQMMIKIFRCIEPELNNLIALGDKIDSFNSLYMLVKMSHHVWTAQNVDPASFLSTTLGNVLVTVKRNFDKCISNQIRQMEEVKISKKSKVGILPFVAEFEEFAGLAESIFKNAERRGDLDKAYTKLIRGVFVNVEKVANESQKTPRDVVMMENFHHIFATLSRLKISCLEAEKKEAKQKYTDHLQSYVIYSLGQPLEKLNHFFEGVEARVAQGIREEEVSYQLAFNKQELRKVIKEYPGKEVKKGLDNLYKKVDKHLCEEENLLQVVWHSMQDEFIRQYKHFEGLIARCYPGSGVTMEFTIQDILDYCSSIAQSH
UniProt O60645: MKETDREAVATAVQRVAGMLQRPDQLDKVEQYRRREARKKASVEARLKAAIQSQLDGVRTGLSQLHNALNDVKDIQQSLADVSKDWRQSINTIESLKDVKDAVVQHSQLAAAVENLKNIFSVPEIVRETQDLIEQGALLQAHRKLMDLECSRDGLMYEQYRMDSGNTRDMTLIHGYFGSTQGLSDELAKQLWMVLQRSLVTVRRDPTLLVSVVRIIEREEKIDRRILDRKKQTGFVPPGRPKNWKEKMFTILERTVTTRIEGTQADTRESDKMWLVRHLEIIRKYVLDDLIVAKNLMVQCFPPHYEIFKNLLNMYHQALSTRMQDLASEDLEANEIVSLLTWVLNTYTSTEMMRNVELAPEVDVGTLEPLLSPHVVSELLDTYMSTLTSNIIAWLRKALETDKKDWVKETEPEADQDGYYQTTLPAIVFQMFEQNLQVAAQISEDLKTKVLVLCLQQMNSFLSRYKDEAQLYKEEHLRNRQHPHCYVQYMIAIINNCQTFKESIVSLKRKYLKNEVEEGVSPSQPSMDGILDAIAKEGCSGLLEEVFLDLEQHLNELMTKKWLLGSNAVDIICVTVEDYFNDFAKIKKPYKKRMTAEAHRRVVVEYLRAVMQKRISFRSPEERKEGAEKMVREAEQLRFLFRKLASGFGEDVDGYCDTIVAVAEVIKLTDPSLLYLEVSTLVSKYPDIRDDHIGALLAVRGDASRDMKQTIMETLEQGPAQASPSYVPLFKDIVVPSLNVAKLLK

These are yes or no findings as the source states them, for the method shown. In cells and extracts the contact can be indirect. Some results given as binding are weak or reduced against the parent protein; the word gives no strength.

For assay [1], the target named is GST-fusion of Exoc4 (human) (UniProt Q96A65). As to the kind of experiment: pull-down.
Assay [2] deals with GST-fusion of Exoc4ΔLoop (Exoc4 with T410-V492 deleted) (human) (UniProt Q96A65). Briefly: pull-down.

Regarding “Exoc1 (single subunit coexpressed with the GST-fusions of Exoc4) (from UniProt Q9NV70 1-894)”, the binding result in assay [1] and in assay [2] was “binds” throughout.

Take “Exoc3 (single subunit coexpressed with the GST-fusions of Exoc4) (from UniProt O60645 1-745)”: the binding result in assay [1] and in assay [2] was “binds” each time.
